pIC50, pKd: −log10 of the molar value. Where “and” joins values, the source holds several entries; their conditions need not be identical. Identical values can stand only once. For at least one compound, name, drawing or mass did not settle the structure. No end group written: not given here.
Experiments:
[1] = molecular target: T1, TREK-1 (Mus musculus, UniProt P97438); experiment: Whole-cell patch-clamp on TREK-1 transfected COS-7 cells; assay type: cell-based; parameters: GFP; expressed in transfected cells; host or cells: COS-7 (DEAE-dextran transfection); conditions: at 0 mV, 10 μM aa; read-out: IC50, inhibition of TREK-1 currents
T1 sequence (P97438 1-426): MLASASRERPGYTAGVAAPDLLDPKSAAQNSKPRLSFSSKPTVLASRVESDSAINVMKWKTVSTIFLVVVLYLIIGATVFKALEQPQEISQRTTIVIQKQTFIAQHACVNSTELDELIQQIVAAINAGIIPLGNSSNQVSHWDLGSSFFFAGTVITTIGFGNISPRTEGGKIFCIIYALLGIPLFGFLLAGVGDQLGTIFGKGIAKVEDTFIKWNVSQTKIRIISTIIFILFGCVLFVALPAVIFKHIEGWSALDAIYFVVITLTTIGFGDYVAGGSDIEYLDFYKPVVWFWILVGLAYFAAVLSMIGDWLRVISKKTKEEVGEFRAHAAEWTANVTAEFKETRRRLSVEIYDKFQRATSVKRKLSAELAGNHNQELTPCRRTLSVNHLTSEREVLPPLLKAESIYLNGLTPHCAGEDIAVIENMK
Protocol: All electrophysiological experiments were done on COS-7 cells seeded at a density of 20,000 cells/35-mm dish 24 h before transfection. Cells were transfected by the classical DEAE-dextran method with TREK-1-GFP plasmids (0.1 μg/μL). Cells were visualized 48-72 h after transfection using fluorescence.
The whole-cell patch-clamp technique was used to evaluate TREK-1 potassium channel current by using a RK 400 patch-clamp amplifier (Axon Instruments, U.S.A.), as previously described. Currents were lowpass filtered at 3 kHz, digitized at 10 kHz using a 12-bit analog-to-digital converter. […] The bath solution contained (in mM): 150 NaCl, 5 KCl, 3 MgCl2, 1 CaCl2, and 10 HEPES, adjusted to pH 7.4 with NaOH; the patch pipette solution contained (in mM): 155 KCl, 3 MgCl2, 5 EGTA, and 10 HEPES, adjusted to pH 7.2 with KOH. Cells were clamped at −80 mV and voltage changes were either applied by ramp (from −100 to 50 mV, 1 s in duration) or by step (from −100 to 40 mV, 1.5 s in duration). Cells were continuously superfused with a microperfusion system. The pipette capacitance was not subtracted from total membrane capacitance and there was no leak substraction. […]
Pclamp software was used to analyze currents recorded in the whole-cell mode measured at 0 mV. Results are expressed as means±SD. […]

[2] = molecular target: T1, TREK-1; experiment: Competition with 125I-spadin for binding to TREK-1 transfected COS-7 cell homogenates; parameters: expressed in transfected cells; host or cells: COS-7 (DEAE-dextran transfection); conditions: TREK-1 transfected COS-7 homogenates, read-out: affinity for TREK-1
[3] = molecular target: T2, NTSR3/Sortilin (Homo sapiens, UniProt Q99523); experiment: Competition with 125I-NT for binding to C13NJ cell homogenates; conditions: read-out: affinity, displacing the binding of 125I-NT
T2 sequence (Q99523 78-831): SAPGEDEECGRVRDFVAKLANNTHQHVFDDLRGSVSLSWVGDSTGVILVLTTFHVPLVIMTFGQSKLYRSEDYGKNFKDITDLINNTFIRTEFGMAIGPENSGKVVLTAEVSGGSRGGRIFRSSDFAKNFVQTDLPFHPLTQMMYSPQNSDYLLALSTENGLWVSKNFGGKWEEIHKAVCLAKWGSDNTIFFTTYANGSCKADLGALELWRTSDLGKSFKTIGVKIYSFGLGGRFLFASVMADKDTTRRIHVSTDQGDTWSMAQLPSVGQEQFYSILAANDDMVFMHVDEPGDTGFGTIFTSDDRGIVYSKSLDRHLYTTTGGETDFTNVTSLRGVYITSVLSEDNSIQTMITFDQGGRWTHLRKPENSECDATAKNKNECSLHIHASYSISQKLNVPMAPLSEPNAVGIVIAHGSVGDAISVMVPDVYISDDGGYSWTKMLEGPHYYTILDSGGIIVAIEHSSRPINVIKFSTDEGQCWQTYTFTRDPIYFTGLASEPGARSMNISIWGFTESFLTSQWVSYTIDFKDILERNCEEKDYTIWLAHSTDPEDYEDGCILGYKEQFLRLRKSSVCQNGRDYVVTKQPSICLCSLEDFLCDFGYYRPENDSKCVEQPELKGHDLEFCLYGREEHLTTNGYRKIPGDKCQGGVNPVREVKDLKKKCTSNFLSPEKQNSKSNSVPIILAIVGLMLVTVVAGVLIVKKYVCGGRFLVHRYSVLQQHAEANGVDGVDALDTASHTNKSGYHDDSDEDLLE

Sequence: APLPRWSGPIGVSWGLR [spadin]
- pIC50 [1]: 7.15
- pKd [2]: ~8.00 and 8.00
- pKd [3]: 8.10

From patent US20120322060A1, “DIAGNOSIS AND MONITORING TREATMENT OF PSYCHIATRIC DISEASES WITH SPADIN AND RELATED METHODS” (CENTRE NATIONAL DE LE RECHERCHE SCIENTIFIQUE - CNRS -, priority 2011, published 2012)
